At least one compound was matched to its structure with a doubt left.
Tested on: segments of transgenic maize TC-inducible ODP2 plantlets
Experiment: Callus and somatic embryo formation from plantlet segments of TC-inducible ODP2 maize on doxycycline medium
Type: cell-based

In the case of C[C@H]1c2cccc(O)c2C(=O)C2=C(O)[C@]3(O)C(=O)C(C(N)=O)=C(O)[C@@H](N(C)C)[C@@H]3[C@@H](O)[C@@H]21 [doxycycline], the “somatic embryo and shoot formation on cut edges of T2 leaf segments (FIG. 2)” value (1 mg/L doxycycline) is reported as “Somatic embryo and shoot formation”, the “somatic embryo formation on cut edges of T1 plantlet segments (FIG. 1)” value (1 mg/L doxycycline for 2 weeks) is reported as “Somatic embryo formation” and the “callus production by explants of transgenic plantlets” value (1 cm segments on medium with 1 mg/L doxycycline, non-transgenic controls did not produce callus) is reported as “produced callus”.
